Experimental data reported in PubChem BioAssay (NCATS).
The shares of active, inactive and inconclusive entries below differ from those in the screen. For some of these results: A potency beside an inconclusive call is a rough fit, not a confirmed value. Calls of active or inactive are those of the source. The call rests on the fitted dose curve; in most records, active means well fitted curve in the direction sought with a large enough effect; inconclusive means small, poorly fitted or top-dose-only effect, or another doubt; inactive means no such curve, though single readings can be large; an effect the other way counts as inactive or inconclusive.

Assays:
[1] = Quantitative High-Throughput drug screen in 47 multiple myeloma cell lines against the NCATS MIPE library collection: Delta47_JCRB cell viability assay (AID 1918925; further: nearly all actives have a fitted effect of over 45% in size; further: potency means the concentration at half of the fitted maximal effect)
How it was run: (§1)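 Steps: seed 500 cells per well; pin-transfer MIPE 4.0 library; incubate 48 h at 37C, 5% CO2, humidified; add CellTiter-Glo, 5 min room temperature; read luminescence.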

[2] = Quantitative High-Throughput drug screen in 47 multiple myeloma cell lines against the NCATS MIPE library collection: Karpas417_ECACC cell viability assay (AID 1918961); settings: Karpas417 myeloma viability, CellTiter-Glo ATP luminescence, 48 h; viability (% of DMSO): at 45.8 µM (top of the series); further: potency means the concentration at half of the fitted maximal effect
How it was run: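 CellTiter-Glo luminescence (ATP) after 48 h compound exposure, 37C/5% CO2; 500 cells/well; MIPE 4.0 approved/investigational drugs pinned in; DMSO = 100%, media only = 0% viability.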

[3] = Quantitative High-Throughput drug screen in 47 multiple myeloma cell lines against the NCATS MIPE library collection: KHM11_PLB cell viability assay (AID 1918962); further: potency means the concentration at half of the fitted maximal effect; nearly all actives have a fitted effect of over 35% in size
How it was run: as §1

[4] = Quantitative High-Throughput drug screen in 47 multiple myeloma cell lines against the NCATS MIPE library collection: JIM1_ECACC cell viability assay (AID 1918964; further: potency means the concentration at half of the fitted maximal effect); settings: JIM1 myeloma viability, CellTiter-Glo ATP luminescence, 48 h; viability (% of DMSO): at 45.8 µM (top of the series)
How it was run: as §1

[5] = Quantitative High-Throughput drug screen in 47 multiple myeloma cell lines against the NCATS MIPE library collection: KMS20_JCRB cell viability assay (AID 1918973); settings: CellTiter-Glo ATP, 48 h; viability (% of DMSO): at 45.8 µM (top of the series); further: potency means the concentration at half of the fitted maximal effect; nearly all actives have a fitted effect of over 45% in size
How it was run: as §1

[6] = Quantitative High-Throughput drug screen in 47 multiple myeloma cell lines against the NCATS MIPE library collection: KMS26_JCRB cell viability assay (AID 1918975); settings: KMS26 myeloma cells viability, CellTiter-Glo ATP, 48 h; viability (% of DMSO): at 45.8 µM (top of the series); further: nearly all actives have a fitted effect of over 45% in size; further: potency means the concentration at half of the fitted maximal effect
How it was run: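 Relative luminescence from CellTiter-Glo served as the viability signal, referenced to DMSO-treated (100%) and cell-free medium (0%) controls. Treatment lasted 48 hours at 37C with 500 cells per well.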

[7] = Quantitative High-Throughput drug screen in 47 multiple myeloma cell lines against the NCATS MIPE library collection: MMM1_PLB cell viability assay (AID 1918976); further: potency means the concentration at half of the fitted maximal effect; nearly all actives have a fitted effect of over 35% in size
How it was run: (§2)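 500 cells/well; MIPE 4.0 drugs pin-transferred; 48 h, 37C, 5% CO2. CellTiter-Glo, 5 min RT, luminescence. Controls: DMSO 100%, media 0%.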

[8] = Quantitative High-Throughput drug screen in 47 multiple myeloma cell lines against the NCATS MIPE library collection: MOLP8_DSMZ cell viability assay (AID 1918977); settings: MOLP8 myeloma viability, CellTiter-Glo ATP luminescence, 48 h; viability (% of control): at 45.8 µM (top of the series); further: nearly all actives have a fitted effect of over 45% in size; further: potency means the concentration at half of the fitted maximal effect
How it was run: as §2

[9] = Quantitative High-Throughput drug screen in 47 multiple myeloma cell lines against the NCATS MIPE library collection: MM1S_ATCC cell viability assay (AID 1918980)
How it was run: as §2

[10] = Quantitative High-Throughput drug screen in 47 multiple myeloma cell lines against the NCATS MIPE library collection: L363_DSMZ cell viability assay (AID 1918984); settings: L363 myeloma viability, CellTiter-Glo ATP luminescence, 48 h; viability (% of control): at 45.8 µM (top of the series); further: potency means the concentration at half of the fitted maximal effect; nearly all actives have a fitted effect of over 40% in size
How it was run: as §2

[11] = Quantitative High-Throughput drug screen in 47 multiple myeloma cell lines against the NCATS MIPE library collection: KMS34_JCRB cell viability assay (AID 1918985); further: nearly all actives have a fitted effect of over 40% in size; further: potency means the concentration at half of the fitted maximal effect
How it was run: as §2

[12] = Quantitative High-Throughput drug screen in 47 multiple myeloma cell lines against the NCATS MIPE library collection: XG1_PLB cell viability assay (AID 1919866); further: potency means the concentration at half of the fitted maximal effect; nearly all actives have a fitted effect of over 35% in size
How it was run: as §2

[13] = Quantitative High-Throughput drug screen in 47 multiple myeloma cell lines against the NCATS MIPE library collection: VP6_DJ cell viability assay (AID 1919867); further: nearly all actives have a fitted effect of over 40% in size; further: potency means the concentration at half of the fitted maximal effect
How it was run: as §2

[14] = Quantitative High-Throughput drug screen in 47 multiple myeloma cell lines against the NCATS MIPE library collection: OPM2_DSMZ cell viability assay (AID 1919872); further: potency means the concentration at half of the fitted maximal effect; nearly all actives have a fitted effect of over 30% in size
How it was run: as §1

[15] = S16 Schwann cell PMP22 intronic element firefly luciferase assay (AID 624032); further: potency means the concentration at half of the fitted maximal effect; nearly all actives have a fitted effect of over 30% in size
How it was run: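 Rat S16 Schwann cells stably carrying firefly luciferase driven by a PMP22 intronic element, in 10% FBS, treated 24 h at 37 C. ONE-Glo luminescence normalized to PTC124 control and DMSO (0%); curves classed by r2, magnitude and activity.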

[16] = qHTS of pediatric cancer cell lines to identify multiple opportunities for drug repurposing: Confirmatory screen for BT-12 cells (AID 1347112); further: nearly all actives have a fitted effect of over 55% in size; further: potency means the concentration at half of the fitted maximal effect
How it was run: (§3)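 Viability after 48 h compound treatment at 37C, 500-1,000 cells/well, read as ATP luminescence with CellTiter-Glo. Primary screens used 11-point (MIPE, 0.78 nM-46 µM) or 8-point (NPC, 0.59 nM-46 µM) final concentrations; follow-up screens used 11-point dilutions.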

[17] = qHTS of pediatric cancer cell lines to identify multiple opportunities for drug repurposing: Confirmatory screen for SJ-GBM2 cells (AID 1347116);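 further: plate controls were DMSO for no effect and bortezomib for full effect; nearly all actives have a fitted effect of over 60% in size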
How it was run: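 Viability measured as metabolically active cells via CellTiter-Glo luminescence following 48 hours of compound exposure, 11-point dilutions in confirmatory testing. 500-1,000 cells/well plated 5 hours before dosing; controls were DMSO and 2.3 µM bortezomib.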

[18] = qHTS of pediatric cancer cell lines to identify multiple opportunities for drug repurposing: Confirmatory screen for RD cells (AID 1347124);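 further: cells exposed to compound for 48 h before viability readout; nearly all actives have a fitted effect of over 65% in size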; further: potency means the concentration at half of the fitted maximal effect
How it was run: as §3

AS120 = experiment: qHTS profiling for inhibitors of Plasmodium falciparum proliferation (AID 504749); further: nearly all actives have a fitted effect of over 60% in size; further: potency means the concentration at half of the fitted maximal effect; settings: P. falciparum in erythrocytes, SYBR Green DNA, 72 h; series mostly up to 28.7 µM
How it was run: (§4)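 SYBR Green fluorescence (ex 485 nm, em 535 nm) reports parasite DNA after 72 h compound exposure of infected red cells at 0.3% parasitemia, 2.5% hematocrit; signal normalized to 0.29 uM artemisinin and vehicle wells.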

CP325 = experiment: as above; settings: P. falciparum in erythrocytes, SYBR Green DNA, 72 h; series mostly up to 28.7 µM
How it was run: as §4

Nc1ccn(C[C@@H](CO)OCP(=O)(O)O)c(=O)n1
Potency [1]: inactive | Potency [2]: inconclusive: 18.2 µM [rising, partial curve, poor fit] | Potency [3]: inconclusive: 1.15 µM [cytotoxic, partial curve, poor fit] | Potency [4]: inactive | Potency [5]: inconclusive: 16.2 µM [cytotoxic, single point] | Potency [6]: inactive | Potency [7]: inconclusive: 4.57 µM [cytotoxic, partial curve, poor fit] | Potency [8]: inactive | Potency [9]: inconclusive: 0.0008 µM [cytotoxic, full curve, poor fit] | Potency [10]: inconclusive: 2.88 µM [rising, partial curve, poor fit] | Potency [11]: inactive | Potency [12]: inconclusive: 2.88 µM [cytotoxic, partial curve, poor fit] | Potency [13]: inactive | Potency [14]: inconclusive: 0.0005 µM [cytotoxic, full curve, poor fit]

CC(C)(C)C(=O)OCOP(=O)(COCCn1cnc2c(N)ncnc21)OCOC(=O)C(C)(C)C
Potency [15]: inconclusive: 28.7 µM [inhibitor, partial curve] | Potency [16]: active: 16.5 µM | Potency [17]: inactive | Potency [18]: inactive | Potency [1]: active: 0.0833 µM | viability (% of DMSO) [2]: inconclusive: 5.45% [cytotoxic] | Potency [3]: active: 0.935 µM | Potency [4]: active: 2.64 µM | Potency [5]: active: 2.64 µM | Potency [6]: active: 6.62 µM | Potency [7]: active: 18.7 µM | Potency [8]: inconclusive: 1.32 µM [cytotoxic, full curve] | Potency [9]: active: 2.09 µM | Potency [10]: active: 4.69 µM | Potency [11]: inconclusive: 3.32 µM [cytotoxic, partial curve] | Potency [12]: inconclusive: 1.87 µM [cytotoxic, full curve] | Potency [13]: active: 1.05 µM | Potency [14]: active: 23.5 µM | Potency (AS120): inconclusive: 17.8 µM [inhibitor, single point]

CCCCc1nc(Cl)c(CO)n1Cc1ccc(-c2ccccc2-c2nn[nH]n2)cc1
Potency (CP325): inconclusive: 6.01 µM [inhibitor, partial curve]

O=S(=O)(O)c1cc(I)c(O)c2ncccc12
Potency (AS120): inactive

C[N+](C)(C)CCCCCCCCCC[N+](C)(C)C
Potency (CP325): active: 3.38 µM

C#C[C@]1(OC(C)=O)CC[C@H]2[C@@H]3CCC4=C[C@@H](OC(C)=O)CC[C@@H]4[C@H]3CC[C@@]21C
Potency [15]: inconclusive: 20.3 µM [inhibitor, partial curve, poor fit]

NC(=O)CC[C@@H]1NC(=O)[C@H](Cc2ccccc2)NC(=O)[C@H](Cc2ccc(O)cc2)NC(=O)CCSSC[C@@H](C(=O)N2CCC[C@H]2C(=O)N[C@@H](CCCN=C(N)N)C(=O)NCC(N)=O)NC(=O)[C@H](CC(N)=O)NC1=O
Potency [16]: inactive | Potency [17]: inactive | Potency [18]: inconclusive: 32.9 µM [cytotoxic, single point]
